In article doi:10.1101/569459 (bioRxiv, 2019):
These are yes or no findings as the source states them, for the method shown. Binding seen in cells or lysates may run through a third protein. Here binding means that the protein was enriched with, or labelled near, the bait; the list need not be complete.

By UniProt entry, the sequences of proteins in these tests, tags left out.
UniProt O43663: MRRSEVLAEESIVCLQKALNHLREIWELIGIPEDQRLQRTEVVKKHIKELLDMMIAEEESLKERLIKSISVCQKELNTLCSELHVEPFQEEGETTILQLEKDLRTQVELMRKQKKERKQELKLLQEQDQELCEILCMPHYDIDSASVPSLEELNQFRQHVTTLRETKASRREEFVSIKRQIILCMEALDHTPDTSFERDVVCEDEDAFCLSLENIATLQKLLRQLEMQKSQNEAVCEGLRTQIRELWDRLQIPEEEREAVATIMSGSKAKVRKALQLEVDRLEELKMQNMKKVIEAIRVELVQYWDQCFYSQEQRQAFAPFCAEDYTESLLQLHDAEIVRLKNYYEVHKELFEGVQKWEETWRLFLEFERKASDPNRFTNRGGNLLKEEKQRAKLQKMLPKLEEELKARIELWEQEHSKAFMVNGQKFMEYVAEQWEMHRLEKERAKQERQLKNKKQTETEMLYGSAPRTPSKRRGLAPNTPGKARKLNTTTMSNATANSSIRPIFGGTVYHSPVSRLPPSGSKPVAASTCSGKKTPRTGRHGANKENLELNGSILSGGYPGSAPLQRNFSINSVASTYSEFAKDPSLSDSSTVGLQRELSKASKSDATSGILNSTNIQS
UniProt O14578: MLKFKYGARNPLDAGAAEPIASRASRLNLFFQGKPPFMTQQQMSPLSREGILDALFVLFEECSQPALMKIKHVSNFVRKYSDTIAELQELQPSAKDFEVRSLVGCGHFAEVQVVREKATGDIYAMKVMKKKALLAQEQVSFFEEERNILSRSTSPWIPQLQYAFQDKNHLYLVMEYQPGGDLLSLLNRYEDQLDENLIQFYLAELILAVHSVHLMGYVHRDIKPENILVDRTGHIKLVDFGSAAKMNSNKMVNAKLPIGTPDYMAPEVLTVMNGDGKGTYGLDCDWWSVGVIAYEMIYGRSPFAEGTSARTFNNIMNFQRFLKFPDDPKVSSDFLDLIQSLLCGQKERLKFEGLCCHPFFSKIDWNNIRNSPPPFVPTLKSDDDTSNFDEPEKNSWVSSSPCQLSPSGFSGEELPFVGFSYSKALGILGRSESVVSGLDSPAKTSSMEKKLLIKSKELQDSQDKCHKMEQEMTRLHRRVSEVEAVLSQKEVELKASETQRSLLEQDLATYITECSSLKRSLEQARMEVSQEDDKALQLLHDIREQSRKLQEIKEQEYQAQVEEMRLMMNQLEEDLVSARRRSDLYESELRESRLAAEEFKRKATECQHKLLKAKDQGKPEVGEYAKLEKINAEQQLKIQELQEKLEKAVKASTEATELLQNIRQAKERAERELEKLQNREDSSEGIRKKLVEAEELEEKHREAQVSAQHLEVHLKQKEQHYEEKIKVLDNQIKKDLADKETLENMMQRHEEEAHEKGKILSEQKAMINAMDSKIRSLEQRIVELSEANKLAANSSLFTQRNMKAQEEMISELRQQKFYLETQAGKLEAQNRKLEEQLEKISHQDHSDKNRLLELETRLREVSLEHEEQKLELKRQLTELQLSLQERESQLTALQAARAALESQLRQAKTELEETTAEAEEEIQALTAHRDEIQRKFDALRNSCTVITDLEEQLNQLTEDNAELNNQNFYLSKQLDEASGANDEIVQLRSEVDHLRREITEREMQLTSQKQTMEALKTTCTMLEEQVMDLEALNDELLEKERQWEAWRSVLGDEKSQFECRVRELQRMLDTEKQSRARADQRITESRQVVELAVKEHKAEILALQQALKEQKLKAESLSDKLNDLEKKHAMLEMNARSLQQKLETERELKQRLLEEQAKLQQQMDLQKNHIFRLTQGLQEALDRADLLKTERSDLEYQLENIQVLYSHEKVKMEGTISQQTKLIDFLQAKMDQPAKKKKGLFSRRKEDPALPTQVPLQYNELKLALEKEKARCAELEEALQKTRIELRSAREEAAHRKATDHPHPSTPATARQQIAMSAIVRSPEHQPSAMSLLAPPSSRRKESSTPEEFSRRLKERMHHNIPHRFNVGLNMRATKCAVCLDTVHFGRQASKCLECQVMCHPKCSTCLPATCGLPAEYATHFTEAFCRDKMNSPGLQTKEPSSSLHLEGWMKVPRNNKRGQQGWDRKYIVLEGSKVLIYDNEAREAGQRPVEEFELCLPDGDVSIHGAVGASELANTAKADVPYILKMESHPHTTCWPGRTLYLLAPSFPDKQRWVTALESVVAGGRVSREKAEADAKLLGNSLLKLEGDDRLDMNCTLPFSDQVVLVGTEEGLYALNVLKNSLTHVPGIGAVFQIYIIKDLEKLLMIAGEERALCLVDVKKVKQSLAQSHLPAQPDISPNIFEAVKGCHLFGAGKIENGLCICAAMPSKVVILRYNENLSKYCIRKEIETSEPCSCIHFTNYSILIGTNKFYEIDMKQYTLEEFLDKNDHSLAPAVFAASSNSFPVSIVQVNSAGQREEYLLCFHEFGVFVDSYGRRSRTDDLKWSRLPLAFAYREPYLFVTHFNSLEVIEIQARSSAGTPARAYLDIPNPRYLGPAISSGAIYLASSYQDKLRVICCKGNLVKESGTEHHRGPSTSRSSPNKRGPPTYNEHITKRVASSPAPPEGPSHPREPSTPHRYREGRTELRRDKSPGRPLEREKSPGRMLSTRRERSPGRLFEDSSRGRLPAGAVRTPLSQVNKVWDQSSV
UniProt P53350: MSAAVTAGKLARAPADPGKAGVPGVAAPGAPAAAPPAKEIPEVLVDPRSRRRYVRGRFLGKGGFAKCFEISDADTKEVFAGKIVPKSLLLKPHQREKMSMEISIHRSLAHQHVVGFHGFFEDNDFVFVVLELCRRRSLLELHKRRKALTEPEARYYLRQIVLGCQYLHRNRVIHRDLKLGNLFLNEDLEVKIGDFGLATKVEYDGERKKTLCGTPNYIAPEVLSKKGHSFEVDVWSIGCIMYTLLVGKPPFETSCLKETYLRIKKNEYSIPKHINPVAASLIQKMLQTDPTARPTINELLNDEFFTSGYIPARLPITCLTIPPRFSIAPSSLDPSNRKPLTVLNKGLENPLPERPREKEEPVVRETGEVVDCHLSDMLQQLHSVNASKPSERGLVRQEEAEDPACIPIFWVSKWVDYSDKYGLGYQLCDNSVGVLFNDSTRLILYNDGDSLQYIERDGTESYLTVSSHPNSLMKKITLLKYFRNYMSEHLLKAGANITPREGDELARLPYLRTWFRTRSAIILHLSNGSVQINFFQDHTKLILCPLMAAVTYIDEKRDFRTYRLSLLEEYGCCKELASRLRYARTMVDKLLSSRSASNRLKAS
UniProt Q15058: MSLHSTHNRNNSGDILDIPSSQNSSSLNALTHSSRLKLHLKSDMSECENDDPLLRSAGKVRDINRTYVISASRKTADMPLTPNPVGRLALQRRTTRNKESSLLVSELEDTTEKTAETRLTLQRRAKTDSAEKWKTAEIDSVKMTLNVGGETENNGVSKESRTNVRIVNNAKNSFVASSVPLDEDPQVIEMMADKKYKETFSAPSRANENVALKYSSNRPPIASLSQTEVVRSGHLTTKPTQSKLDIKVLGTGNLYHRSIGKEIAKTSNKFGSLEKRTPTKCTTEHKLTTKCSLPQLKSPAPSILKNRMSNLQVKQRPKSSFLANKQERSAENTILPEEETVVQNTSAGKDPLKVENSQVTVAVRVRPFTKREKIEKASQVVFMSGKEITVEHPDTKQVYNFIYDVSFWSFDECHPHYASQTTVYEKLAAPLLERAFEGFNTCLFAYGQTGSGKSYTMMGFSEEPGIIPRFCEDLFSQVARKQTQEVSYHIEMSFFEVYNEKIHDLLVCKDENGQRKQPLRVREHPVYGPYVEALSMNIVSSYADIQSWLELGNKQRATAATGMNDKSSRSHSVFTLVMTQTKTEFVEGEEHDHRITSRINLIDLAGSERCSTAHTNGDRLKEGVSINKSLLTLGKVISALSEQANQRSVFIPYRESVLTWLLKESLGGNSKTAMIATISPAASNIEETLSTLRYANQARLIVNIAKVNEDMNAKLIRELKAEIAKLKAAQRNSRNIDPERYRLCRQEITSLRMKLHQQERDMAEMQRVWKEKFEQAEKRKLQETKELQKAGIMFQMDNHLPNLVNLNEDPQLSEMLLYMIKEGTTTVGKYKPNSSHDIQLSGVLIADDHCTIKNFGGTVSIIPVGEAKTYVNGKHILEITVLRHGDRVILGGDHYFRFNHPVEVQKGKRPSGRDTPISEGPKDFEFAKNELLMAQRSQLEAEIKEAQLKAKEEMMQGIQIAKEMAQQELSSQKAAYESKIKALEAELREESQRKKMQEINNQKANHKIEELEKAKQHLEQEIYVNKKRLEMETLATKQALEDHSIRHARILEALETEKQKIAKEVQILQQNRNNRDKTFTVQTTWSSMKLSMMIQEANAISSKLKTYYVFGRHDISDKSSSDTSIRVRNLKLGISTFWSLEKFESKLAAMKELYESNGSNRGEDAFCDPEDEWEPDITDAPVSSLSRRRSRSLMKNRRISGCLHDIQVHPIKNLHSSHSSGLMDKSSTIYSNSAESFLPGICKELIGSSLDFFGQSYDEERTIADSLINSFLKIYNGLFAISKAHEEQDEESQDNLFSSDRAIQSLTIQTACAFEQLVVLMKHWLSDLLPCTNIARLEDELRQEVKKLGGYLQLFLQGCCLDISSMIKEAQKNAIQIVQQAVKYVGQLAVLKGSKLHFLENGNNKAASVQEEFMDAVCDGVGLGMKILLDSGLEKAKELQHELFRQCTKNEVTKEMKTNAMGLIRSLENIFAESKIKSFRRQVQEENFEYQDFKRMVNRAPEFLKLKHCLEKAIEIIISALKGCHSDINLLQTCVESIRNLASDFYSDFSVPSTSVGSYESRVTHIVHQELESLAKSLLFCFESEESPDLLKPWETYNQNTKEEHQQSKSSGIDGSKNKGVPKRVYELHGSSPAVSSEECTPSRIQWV

Legend:
[1] = target: GFP::PRC1 (UniProt O43663); assay: affinity purification with mass spectrometry
[2] = target: Citron kinase tagged with GFP (CIT-K::AcGFP) (UniProt O14578); assay: affinity purification with mass spectrometry

| binding [1] | binding [2] | Molecule |
| --- | --- | --- |
| binds | – | Polo-like kinase 1 (Plk1) (from UniProt P53350 1-603) (enzyme) |
| – | binds | kinesin KIF14 (endogenous prey) (from UniProt Q15058 1-1648) |
| – | binds | Anillin (endogenous prey) (protein, UniProt Q9NQW6 1-1124) MDPFTEKLLERTRARRENLQRKMAERPTAAPRSMTHAKRARQPLSEASNQQPLSGGEEKSCTKPSPSKKRCSDNTEVEVSNLENKQPVESTSAKSCSPSPVSPQVQPQAADTISDSVAVPASLLGMRRGLNSRLEATAASSVKTRMQKLAEQRRRWDNDDMTDDIPESSLFSPMPSEEKAASPPRPLLSNASATPVGRRGRLANLAATICSWEDDVNHSFAKQNSVQEQPGTACLSKFSSASGASARINSSSVKQEATFCSQRDGDASLNKALSSSADDASLVNASISSSVKATSPVKSTTSITDAKSCEGQNPELLPKTPISPLKTGVSKPIVKSTLSQTVPSKGELSREICLQSQSKDKSTTPGGTGIKPFLERFGERCQEHSKESPARSTPHRTPIITPNTKAIQERLFKQDTSSSTTHLAQQLKQERQKELACLRGRFDKGNIWSAEKGGNSKSKQLETKQETHCQSTPLKKHQGVSKTQSLPVTEKVTENQIPAKNSSTEPKGFTECEMTKSSPLKITLFLEEDKSLKVTSDPKVEQKIEVIREIEMSVDDDDINSSKVINDLFSDVLEEGELDMEKSQEEMDQALAESSEEQEDALNISSMSLLAPLAQTVGVVSPESLVSTPRLELKDTSRSDESPKPGKFQRTRVPRAESGDSLGSEDRDLLYSIDAYRSQRFKETERPSIKQVIVRKEDVTSKLDEKNNAFPCQVNIKQKMQELNNEINMQQTVIYQASQALNCCVDEEHGKGSLEEAEAERLLLIATGKRTLLIDELNKLKNEGPQRKNKASPQSEFMPSKGSVTLSEIRLPLKADFVCSTVQKPDAANYYYLIILKAGAENMVATPLASTSNSLNGDALTFTTTFTLQDVSNDFEINIEVYSLVQKKDPSGLDKKKKTSKSKAITPKRLLTSITTKSNIHSSVMASPGGLSAVRTSNFALVGSYTLSLSSVGNTKFVLDKVPFLSSLEGHIYLKIKCQVNSSVEERGFLTIFEDVSGFGAWHRRWCVLSGNCISYWTYPDDEKRKNPIGRINLANCTSRQIEPANREFCARRNTFELITVRPQREDDRETLVSQCRDTLCVTKNWLSADTKEERDLWMQKLNQVLVDIRLWQPDACYKPIGKP |
